Assay results as given in US20230220206A1, “REJUVENATING AGENTS FOR ASPHALT RECYCLING” (BASF SE, priority 2020, published 2023).

Experiment: Ability to rejuvenate bitumen 20/30 (judged from softening point, viscosity, MSCR)
Assay type: physicochemical
Settings: 5% compound, elastic recovery

| Molecule | ability to rejuvenate bitumen 20/30 (in words) |
| --- | --- |
| CC(C)CCCCCCOC(=O)c1ccccc1C(=O)OCCCCCCC(C)C [Palatinol ® DINP, diisononyl phthalate] | could soften bitumen 20/30 quite well |
| CC(C)(COCC1CO1)COCC1CO1 (stereo not drawn) [Neopentylglycol bis glycidylether] | very well rejuvenating |
| CCCCCCCCCCCCN1CCCC1=O [N-Dodecyl pyrrolidone] | worked very well |
| Polyethylenglycol bis glycidylether | just slightly rejuvenated |
| Polypropylenglycol bis glycidylether | very well rejuvenating |
| Dodecenyl succinic acid anhydride | very well rejuvenating |
| CC(COCC1CO1)(COCC1CO1)c1ccccc1 (stereo not drawn) [2-Methyl-2-phenyl-1,3-propandiol bis glycidylether] | very well rejuvenating |
| CC(C)CCCCCCOC(=O)C1CCCCC1C(=O)OCCCCCCC(C)C (stereo not drawn) [Hexamoll ® DINCH, diisononyl cyclohexane-1,2-dicarboxylate] | could soften bitumen 20/30 quite well |
| CCCCCCCCCCCCc1ccc(S(=O)(=O)O)cc1 [Dodecylbenzene sulfonic acid] | hardened the bitumen |
